{"source": "PubChem BioAssay AID493014", "about": "(National Center for Advancing Translational Sciences (NCATS), 2011)", "test": "qHTS Assay to Find Inhibitors of Chronic Active B-Cell Receptor Signaling", "conditions": "ABC-DLBCL IkBa-CBG/CBR reporter, luminescence ratio (green luciferase fused to IkBa over red control in TMD8 lymphoma cells), 4 h", "in_short": "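Doxycycline induced both beetle luciferases in TMD8 lymphoma cells; IKK-driven degradation limits the IkappaBalpha-fused green signal, while red luminescence normalises for cell number and nonspecific effects. Compounds tested up to 46 uM, 4 hrs.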", "key": {"[1]": {"conditions": "measured here: CBR red luminescence, cell number"}, "[2]": {"conditions": "measured here: IkBa-CBG green luminescence"}}, "note": "The list shows a part of the results. Further columns of the screen follow, without active or inactive calls. Compounds called inactive in the main read-out are mostly missing here. Potencies come from curve fits of mixed quality, noted in brackets.", "data": [{"molecule": "O=C(Nc1ccc2c(c1)N(Cc1ccccc1)C(=O)c1ccccc1S2)NC1CC1", "values": [{"measurement": "AC50", "setting": "[1]", "value": "25.9 µM [falling, partial curve, poor fit]"}]}, {"molecule": "COc1cc(/C=N/Nc2snc(SC)c2C#N)ccc1O", "values": [{"measurement": "AC50", "setting": "[1]", "value": "1.58 µM [rising, partial curve]"}]}, {"molecule": "COc1ccc(C(=O)NC(=S)N2CCN(c3ccccc3OC)CC2)cc1", "values": [{"measurement": "AC50", "setting": "[1]", "value": "10 µM [rising, partial curve, poor fit]"}]}, {"molecule": "Cc1csc(NC(=O)c2ccc(S(C)(=O)=O)cc2)n1", "values": [{"measurement": "AC50", "setting": "[1]", "value": "0.501 µM [falling, partial curve, poor fit]"}]}, {"molecule": "O=c1[nH]c(NCCCO)nc2c1C1(CCCC1)Cc1ccccc1-2", "values": [{"measurement": "AC50", "setting": "[1]", "value": "20.6 µM [falling, single point]"}]}, {"molecule": "COc1ccc(/C=C2\\SC(=S)N(CCC(=O)N(CCO)Cc3ccccc3)C2=O)cc1OC", "values": [{"measurement": "AC50", "setting": "[1]", "value": "7.94 µM [falling, partial curve]"}]}, {"molecule": "O=C(CN1CCCc2ccccc21)NCc1ccccc1Cl", "values": [{"measurement": "AC50", "setting": "[1]", "value": "5.8 µM [falling, partial curve]"}]}, {"molecule": "COc1cc(/C=C2/CCC/C(=C\\c3cc(O)c(OC)c(Cl)c3)C2=O)cc(Cl)c1O", "values": [{"measurement": "AC50", "setting": "[1]", "value": "3.16 µM [falling, partial curve, poor fit]"}]}, {"molecule": "CN1CCCC(OC(=O)c2ccc3c(c2)OCCO3)C1", "note": "(stereo not drawn)", "values": [{"measurement": "AC50", "setting": "[1]", "value": "0.58 µM [falling, full curve, poor fit]"}]}, {"molecule": "COc1cc(/C=C2\\SC(=S)N(CCC(=O)Nc3cccc(O)c3)C2=O)cc(OC)c1OC", "values": [{"measurement": "AC50", "setting": "[1]", "value": "35.5 µM [falling, single point]"}]}, {"molecule": "Cn1c(N2CCN(C(=O)Nc3ccc(C(F)(F)F)cc3)CC2)nc2ccccc21", "values": [{"measurement": "AC50", "setting": "[1]", "value": "20.6 µM [rising, partial curve, poor fit]"}]}, {"molecule": "Cc1[nH][nH]c(=O)c1C(c1ccc(-c2ccc(C(=O)O)cc2)o1)c1c(C)[nH][nH]c1=O", "values": [{"measurement": "AC50", "setting": "[1]", "value": "10 µM [falling, partial curve]"}]}, {"molecule": "COc1cc2ncnc(NCc3ccccc3C)c2cc1OC", "values": [{"measurement": "AC50", "setting": "[1]", "value": "18.4 µM [falling, single point]"}]}, {"molecule": "COc1ccc(NC(=O)CCn2cccc2)cc1", "values": [{"measurement": "AC50", "setting": "[1]", "value": "0.794 µM [rising, partial curve, poor fit]"}]}, {"molecule": "Cc1c(C(=O)OCC(=O)NC(C)c2ccccc2)oc2ccccc12", "note": "(stereo not drawn)", "values": [{"measurement": "AC50", "setting": "[1]", "value": "7.94 µM [falling, partial curve, poor fit]"}]}, {"molecule": "CCn1cc(C(=O)NCc2ccco2)c(=O)c2cc(S(=O)(=O)N3CCc4ccccc4C3)ccc21", "values": [{"measurement": "AC50", "setting": "[1]", "value": "35.5 µM [falling, single point]"}, {"measurement": "AC50", "setting": "[2]", "value": "17.8 µM [rising, partial curve, poor fit]"}]}, {"molecule": "O=C(NCc1ccc(Cl)cc1)C1CCN(S(=O)(=O)c2cc([N+](=O)[O-])ccc2Cl)CC1", "values": [{"measurement": "AC50", "setting": "[1]", "value": "18.4 µM [falling, single point]"}]}, {"molecule": "O=C1C2ON(c3ccc(Br)cc3)C(c3cccnc3)C2C(=O)N1C1CCCCC1", "note": "(stereo not drawn)", "values": [{"measurement": "AC50", "setting": "[1]", "value": "23.1 µM [rising, single point]"}]}, {"molecule": "CCCCSc1nc2sc3c(c2c(=O)n1-c1ccc(OC)cc1)CCN(C)C3", "values": [{"measurement": "AC50", "setting": "[1]", "value": "14.1 µM [rising, single point]"}]}, {"molecule": "C/C(CCc1ccc2c(c1)OCO2)=N\\NC(=O)c1ccccc1Cl", "values": [{"measurement": "AC50", "setting": "[1]", "value": "23.1 µM [falling, partial curve]"}]}, {"molecule": "NC(=O)c1ccc(NC(=O)c2ccc3c(c2)OCO3)cc1", "values": [{"measurement": "AC50", "setting": "[1]", "value": "0.82 µM [falling, full curve]"}]}, {"molecule": "O=C(c1cnn(C(=O)c2ccccc2F)c1)c1ccccc1O", "values": [{"measurement": "AC50", "setting": "[1]", "value": "10.3 µM [falling, partial curve, poor fit]"}]}, {"molecule": "Cc1ccc(C(CNS(=O)(=O)c2ccc(Br)cc2)N2CCN(C)CC2)cc1", "note": "(stereo not drawn)", "values": [{"measurement": "AC50", "setting": "[1]", "value": "10.3 µM [falling, single point]"}]}, {"molecule": "Oc1ccccc1-c1nc(NCCN2CCOCC2)c2ccccc2n1", "values": [{"measurement": "AC50", "setting": "[1]", "value": "20 µM [falling, single point]"}, {"measurement": "AC50", "setting": "[2]", "value": "12.6 µM [rising, partial curve, poor fit]"}]}, {"molecule": "CS(=O)(=O)N(CC(=O)Nc1ccc(S(=O)(=O)N2CCCC2)cc1)c1cccc(F)c1", "values": [{"measurement": "AC50", "setting": "[1]", "value": "0.112 µM [falling, full curve, poor fit]"}]}, {"molecule": "CCCC1(c2ccccc2)NC(=O)N(CC(=O)Nc2sc(-c3ccccc3)cc2C(=O)OCC)C1=O", "note": "(stereo not drawn)", "values": [{"measurement": "AC50", "setting": "[1]", "value": "18.4 µM [rising, partial curve, poor fit]"}]}, {"molecule": "COc1ccc2[nH]c3c(c2c1)CCN1C(=O)C(CC(=O)NCCC2=CCCCC2)C[C@H](C(=O)N(C(C)C)C(C)C)[C@@]31C", "note": "(stereo partly drawn)", "values": [{"measurement": "AC50", "setting": "[1]", "value": "18.4 µM [falling, partial curve]"}]}, {"molecule": "COC(=O)c1c(N)sc2c1CCN(c1ncc(C(F)(F)F)cc1Cl)C2", "values": [{"measurement": "AC50", "setting": "[1]", "value": "16.4 µM [rising, partial curve]"}]}, {"molecule": "CN1CCN(c2ccc(Cl)cc2NC(=O)/C=C/c2cccc(F)c2)CC1", "values": [{"measurement": "AC50", "setting": "[1]", "value": "14.1 µM [falling, partial curve]"}]}, {"molecule": "Oc1cccc(/C=N/Nc2ccc(Cl)nn2)c1O", "values": [{"measurement": "AC50", "setting": "[1]", "value": "10 µM [falling, partial curve]"}, {"measurement": "AC50", "setting": "[2]", "value": "0.398 µM [falling, partial curve, poor fit]"}]}, {"molecule": "O=C(CSc1ccc(-c2ccco2)nn1)c1ccccc1", "values": [{"measurement": "AC50", "setting": "[1]", "value": "29.1 µM [falling, single point]"}]}, {"molecule": "Cc1cc(N2CCCN(C)CC2)nc2cc(Cl)ccc12", "values": [{"measurement": "AC50", "setting": "[1]", "value": "20 µM [falling, single point]"}]}, {"molecule": "CCn1c(C)nc2cc(C(=O)OC)ccc21", "values": [{"measurement": "AC50", "setting": "[1]", "value": "14.1 µM [rising, partial curve, poor fit]"}]}, {"molecule": "CCOC(=O)c1c(NC(=O)C(C)Sc2nnc(C)c(=O)[nH]2)sc2c1CCCC2", "note": "(stereo not drawn)", "values": [{"measurement": "AC50", "setting": "[1]", "value": "5.01 µM [falling, full curve]"}]}, {"molecule": "O=C(Nc1ccc(S(=O)(=O)NCCc2ccccc2)cc1)c1ccc(Br)o1", "values": [{"measurement": "AC50", "setting": "[1]", "value": "29.1 µM [rising, single point]"}]}, {"molecule": "Cc1ccc2[nH]nc(C(=O)N3CCCC(C(=O)c4ccc(Cl)cc4)C3)c2c1", "note": "(stereo not drawn)", "values": [{"measurement": "AC50", "setting": "[1]", "value": "35.5 µM [falling, single point]"}]}, {"molecule": "O=C(Nc1nc(=O)c2ccccc2s1)c1ccc(F)cc1", "values": [{"measurement": "AC50", "setting": "[1]", "value": "2.59 µM [falling, full curve]"}, {"measurement": "AC50", "setting": "[2]", "value": "16.4 µM [rising, single point]"}]}, {"molecule": "COc1ccccc1NC(=O)CC1COc2ccccc2O1", "note": "(stereo not drawn)", "values": [{"measurement": "AC50", "setting": "[1]", "value": "10 µM [falling, partial curve]"}]}, {"molecule": "COc1ccc(O)c(/C=c2/sc3nc4cc(C)c(C)cc4n3c2=O)c1", "values": [{"measurement": "AC50", "setting": "[1]", "value": "35.5 µM [falling, partial curve, poor fit]"}]}]}
